Data source: PubChem BioAssay AID602196 (INSERM, 2012)

- Purpose: 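Modifiers of cisplatin sensitivity in A549 cells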
- System: human A549 lung cancer cells
- Reagent: siRNA pair against human genes
- Time to read-out: 48 h transfection before cisplatin; time from cisplatin to read-out not stated
- Treatment: cisplatin at a dose killing half of control-siRNA cells; exact dose and duration not given
- Measurement: 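Shift in cisplatin death relative to control siRNA, from -50 (all cells die) to +50 (no cells die); siRNAs harmful on their own scored 0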
- Direction: two-siRNA summed score (-2 to +2): higher = both siRNAs protect from cisplatin killing; -2 means both sensitise; mean protection from cisplatin (shift in death): higher = protection from cisplatin killing
- Hit rule: 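siRNAs harmful alone (LDH or WST-1) get 0; others get +1 for less and -1 for more cisplatin killing; genes are active when the two siRNAs give the same sign, summing to ±2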
- Calls: active = both siRNAs shift cisplatin killing the same way; inactive = no consistent shift, or siRNA harmful alone
In all, the deposit lists about 23,000 reagents; shown is a part drawn at random. 455 of them (2%) were called active. 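Active includes both protection and sensitisation; some change values fall well beyond the stated -50 to +50 range.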 Further read-outs or replicates are left out here. Not given: the amount of reagent.

CMPK1: two-siRNA summed score (-2 to +2) = 0; mean protection from cisplatin (shift in death) (%) = 1.4; call = inactive
ASCC1: two-siRNA summed score (-2 to +2) = 0; mean protection from cisplatin (shift in death) (%) = 6.4; call = inactive
LOC441580: two-siRNA summed score (-2 to +2) = 0; mean protection from cisplatin (shift in death) (%) = 5.3; call = inactive
DYNC1I2: two-siRNA summed score (-2 to +2) = 0; mean protection from cisplatin (shift in death) (%) = 8.4; call = inactive
OR5P3: two-siRNA summed score (-2 to +2) = -1; mean protection from cisplatin (shift in death) (%) = -10.6; call = inactive
TRIR: two-siRNA summed score (-2 to +2) = 0; mean protection from cisplatin (shift in death) (%) = 3.3; call = inactive
KIZ: two-siRNA summed score (-2 to +2) = 1; mean protection from cisplatin (shift in death) (%) = 7.5; call = inactive
LOC387765: two-siRNA summed score (-2 to +2) = 1; mean protection from cisplatin (shift in death) (%) = 6.1; call = inactive
LOC390466: two-siRNA summed score (-2 to +2) = 0; mean protection from cisplatin (shift in death) (%) = 8.5; call = inactive
FAM8A1: two-siRNA summed score (-2 to +2) = 0; mean protection from cisplatin (shift in death) (%) = -4.4; call = inactive
FEZF2: two-siRNA summed score (-2 to +2) = 0; mean protection from cisplatin (shift in death) (%) = 12.6; call = inactive
ADAM17: two-siRNA summed score (-2 to +2) = 0; mean protection from cisplatin (shift in death) (%) = 0.5; call = inactive
LOC402031: two-siRNA summed score (-2 to +2) = 0; mean protection from cisplatin (shift in death) (%) = 14.9; call = inactive
GAS2L2: two-siRNA summed score (-2 to +2) = 0; mean protection from cisplatin (shift in death) (%) = 4.5; call = inactive
LOC400627: two-siRNA summed score (-2 to +2) = 0; mean protection from cisplatin (shift in death) (%) = 9.4; call = inactive
LOC196346: two-siRNA summed score (-2 to +2) = 0; mean protection from cisplatin (shift in death) (%) = 6.3; call = inactive
HDAC9: two-siRNA summed score (-2 to +2) = 0; mean protection from cisplatin (shift in death) (%) = 5.2; call = inactive
NXPE1: two-siRNA summed score (-2 to +2) = 0; mean protection from cisplatin (shift in death) (%) = 6.7; call = inactive

Continued; the last 3 above are carried over.
LOC196346: two-siRNA summed score (-2 to +2) = 0; mean protection from cisplatin (shift in death) (%) = 6.3; call = inactive
HDAC9: two-siRNA summed score (-2 to +2) = 0; mean protection from cisplatin (shift in death) (%) = 5.2; call = inactive
NXPE1: two-siRNA summed score (-2 to +2) = 0; mean protection from cisplatin (shift in death) (%) = 6.7; call = inactive
TGFBR2: two-siRNA summed score (-2 to +2) = 2; mean protection from cisplatin (shift in death) (%) = 17.7; call = active
WDSUB1: two-siRNA summed score (-2 to +2) = 0; mean protection from cisplatin (shift in death) (%) = 10.6; call = inactive
LOC387652: two-siRNA summed score (-2 to +2) = 0; mean protection from cisplatin (shift in death) (%) = 4.7; call = inactive
DYNLL1: two-siRNA summed score (-2 to +2) = 0; mean protection from cisplatin (shift in death) (%) = -8.4; call = inactive
ANKRD18DP: two-siRNA summed score (-2 to +2) = 1; mean protection from cisplatin (shift in death) (%) = 11; call = inactive
FSAF1: two-siRNA summed score (-2 to +2) = -2; mean protection from cisplatin (shift in death) (%) = -13.9; call = active
SLC25A6: two-siRNA summed score (-2 to +2) = 0; mean protection from cisplatin (shift in death) (%) = -0.9; call = inactive
LOC442444: two-siRNA summed score (-2 to +2) = 1; mean protection from cisplatin (shift in death) (%) = 15.9; call = inactive
BMI1: two-siRNA summed score (-2 to +2) = -1; mean protection from cisplatin (shift in death) (%) = -9; call = inactive
IFNA2: two-siRNA summed score (-2 to +2) = -1; mean protection from cisplatin (shift in death) (%) = -10.3; call = inactive
LOC442207: two-siRNA summed score (-2 to +2) = 0; mean protection from cisplatin (shift in death) (%) = 10.7; call = inactive
LOC286157: two-siRNA summed score (-2 to +2) = 1; mean protection from cisplatin (shift in death) (%) = 12.9; call = inactive
TAGAP: two-siRNA summed score (-2 to +2) = -1; mean protection from cisplatin (shift in death) (%) = -4.1; call = inactive
